PubChem BioAssay AID1224826 | NIAID – 2016
This is one part, drawn at random, of about 17,000 reagents tested. About 1,110 of all reagents (6.6%) were called active. 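Active means lowered or raised reporter signal; replicate intensities are raw and not normalised per plate.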 Entries without a mark were called inactive. Not all columns of the deposit are shown. No sequences are given here.

Assay: 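Genes that change LPS-induced Tnf promoter activity in mouse macrophages when knocked down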 (primary screen)
System: RAW264.7 G9 macrophages from mouse bearing reporters for p65 (GFP) and the Tnf promoter (mCherry)
Reagents: siRNA pool against mouse genes, 100 nM
Timing: 16 h of LPS stimulation, after 2 days of siRNA transfection
Challenge: bacterial lipopolysaccharide (Salmonella minnesota R595), 10 ng/ml
Measurement: 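Nuclear mCherry signal of the Tnf promoter reporter measured by imaging after background removal, scaled to each plate median and turned into robust z-scores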
Scale: Tnf reporter robust z-score: higher = stronger Tnf promoter reporter signal after LPS
Rule for the call: 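a well counts as active at a score of -1.3 or below (Tlr4 knock-down control median) or above 3 (raised signal); controls and wells holding fewer than 50 cells are excluded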
Meaning of the calls: active = Tnf reporter clearly lowered or raised; inactive = no clear change in Tnf reporter

target | PubChem SID | Tnf reporter robust z-score | fewer than 50 cells in well
Zfp239 (zinc finger protein 239) | SID315470105 | – | fewer than 50 cells per well; well left out of calls
Or8b51 (olfactory receptor family 8 subfamily B member 51) | SID315480427 | 0.88 | enough cells in well
Mta1 (metastasis associated 1) | SID315477066 | 0.46 | enough cells in well
Crx (cone-rod homeobox) | SID315466135 | 0.09 | enough cells in well
Klk1b24 (kallikrein 1-related peptidase b24) | SID315467651 | -0.68 | enough cells in well
Cbfa2t3 (CBFA2/RUNX1 translocation partner 3) | SID315465791 | 0.05 | enough cells in well
Fblim1 (filamin binding LIM protein 1) | SID315474905 | – | fewer than 50 cells per well; well left out of calls
St3gal3 (ST3 beta-galactoside alpha-2,3-sialyltransferase 3) | SID315469235 | 2.39 | enough cells in well
4632433K11Rik (RIKEN cDNA 4632433K11 gene) | SID315475437 | -1.03 | enough cells in well
Emc7 (ER membrane protein complex subunit 7) | SID315474665 | – | fewer than 50 cells per well; well left out of calls
Zfp74 (zinc finger protein 74) | SID315474612 | -0.43 | enough cells in well
Fgd1 (FYVE, RhoGEF and PH domain containing 1) | SID315466658 | 0.38 | enough cells in well
Htr2b (5-hydroxytryptamine (serotonin) receptor 2B) | SID315467341 | – | fewer than 50 cells per well; well left out of calls
Il24 (interleukin 24) | SID315475912 | -1.08 | enough cells in well
Ly75 (lymphocyte antigen 75) | SID315467785 | – | fewer than 50 cells per well; well left out of calls
Gimap6 (GTPase, IMAP family member 6) | SID315478947 | -0.5 | enough cells in well
Vgll4 (vestigial like family member 4) | SID315478978 | -0.53 | enough cells in well
Or8i2 (olfactory receptor family 8 subfamily I member 2) | SID315480411 | -0.56 | enough cells in well
Tex19.1 (testis expressed gene 19.1) | SID315474760 | – | fewer than 50 cells per well; well left out of calls
Ypel3 (yippee like 3) | SID315472207 | 0.39 | enough cells in well
Rb1 (RB transcriptional corepressor 1) | SID315468907 | -0.5 | enough cells in well
Map2k4 (mitogen-activated protein kinase kinase 4) | SID315470376 | 0.96 | enough cells in well
Nus1 (NUS1 dehydrodolichyl diphosphate synthase subunit) | SID315470928 | -0.23 | enough cells in well
Tk2 (thymidine kinase 2, mitochondrial) | SID315471831 | – | fewer than 50 cells per well; well left out of calls
4930451E10Rik (RIKEN cDNA 4930451E10 gene) | SID315475538 | – | fewer than 50 cells per well; well left out of calls
Or7a41 (olfactory receptor family 7 subfamily A member 41) | SID315468323 | – | fewer than 50 cells per well; well left out of calls
Arpc3 (actin related protein 2/3 complex, subunit 3) | SID315471494 | 1.47 | enough cells in well
Usp4 (ubiquitin specific peptidase 4) | SID315469941 | 0.77 | enough cells in well
Kmt5a (lysine methyltransferase 5A) | SID315473334 | -1.13 | enough cells in well
Mansc4 (MANSC domain containing 4) | SID315481979 | -0.3 | enough cells in well
Dlgap1 (DLG associated protein 1) | SID315478390 | 0.89 | enough cells in well
Prl2a1 (prolactin family 2, subfamily a, member 1) | SID315471624 | 2.08 | enough cells in well
Zfp420 (zinc finger protein 420) | SID315479046 | -0.23 | enough cells in well
Pef1 (penta-EF hand domain containing 1) | SID315473299 | 0.29 | enough cells in well
Mlxipl (MLX interacting protein-like) | SID315471915 | -0.3 | enough cells in well
Hmx3 (H6 homeobox 3) | SID315467235 | -1.03 | enough cells in well
Qpctl (glutaminyl-peptide cyclotransferase-like) | SID315472980 | 1.27 | enough cells in well
Hspa2 (heat shock protein family A (Hsp70) member 2) | SID315467326 | -0.24 | enough cells in well
Slc26a5 | SID315475764 | 1.95 | enough cells in well
Xpo7 (exportin 7) | SID315472152 | 1.29 | enough cells in well
Xpo7 (exportin 7) | SID315472153 | – | fewer than 50 cells per well; well left out of calls
Nr2e3 (nuclear receptor subfamily 2, group E, member 3) | SID315470253 | -0.22 | enough cells in well
Troap (trophinin associated protein) | SID315475605 | 0.55 | enough cells in well
Aox1 (aldehyde oxidase 1) | SID315465430 | -0.15 | enough cells in well
Gulo (gulonolactone (L-) oxidase) | SID315480797 | 1.23 | enough cells in well
Pcna (proliferating cell nuclear antigen) | SID315468410 | -0.03 | enough cells in well
Fxn (frataxin) | SID315466747 | -0.41 | enough cells in well
Fam161b (family with sequence similarity 161, member B) | SID315478142 | -1.88 (active) | enough cells in well
Tpcn2 (two pore segment channel 2) | SID315479132 | -1.46 (active) | enough cells in well
Or8g53 (olfactory receptor family 8 subfamily G member 53) | SID315480265 | – | fewer than 50 cells per well; well left out of calls
Stag3 (STAG3 cohesin complex component) | SID315470869 | 2.71 | enough cells in well
Rfc4 (replication factor C (activator 1) 4) | SID315476535 | -0.07 | enough cells in well
Creb3l3 (cAMP responsive element binding protein 3-like 3) | SID315477547 | -1.58 (active) | enough cells in well
Vezf1 (vascular endothelial zinc finger 1) | SID315469998 | 0.21 | enough cells in well
Epha8 (Eph receptor A8) | SID315466527 | 2 | enough cells in well
Or11h4 (olfactory receptor family 11 subfamily H member 4) | SID315471703 | – | fewer than 50 cells per well; well left out of calls
Mrgpra2b (MAS-related GPR, member A2B) | SID315479288 | 2.75 | enough cells in well
Actl6b (actin-like 6B) | SID315475863 | 1.95 | enough cells in well
